Measurements published in PubChem BioAssay AID2685 (National Center for Advancing Translational Sciences (NCATS), 2010).
Some of the results follow. These are further read-outs of the screen, such as a control signal, another cell line or another target. No call is given for them. The list favours compounds with an active or inconclusive main result. Potencies come from curve fits of mixed quality, noted in brackets.

Test: qHTS Assay for Lipid Storage Modulators in Drosophila S3 Cells;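 on cell number change: cells counted by Cell Tracker Red CMTPX staining in the red channel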
Details: BODIPY lipid droplet fluorescence, 18-24 h; for cell number change: measured here: cell count max response, cells fed with added oleic acid
How it was run: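 Drosophila S3 cells got compounds at several concentrations plus oleic acid (400 uM solution). Laser-scanning cytometry with 488 nm excitation read lipid droplets at 500-530 nm and cells at 575-640 nm. Percent activity was relative to 20 uM Triacsin C.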

[1] = measured here: lipid fluorescence (Fed channel) AC50, cells fed with added oleic acid
[2] = measured here: cell number channel AC50, cells fed with added oleic acid

Row | SMILES | cell number change | AC50 [1] | AC50 [2]
1 | Cc1ccc(S(=O)(=O)NCC(=O)OCCOc2cccc(Cl)c2)cc1 | 14.9% | 1.84 µM [falling, partial curve, poor fit] | –
2 | CCOC(=O)Cc1csc(N)n1 | -109% | 23.1 µM [falling, single point] | 5.8 µM [falling, full curve]
3 | COc1cc(OC)cc(C(=O)N[C@H](C(=O)Nc2ccc(F)cc2F)C(C)C)c1 | 27.4% | – | 4.11 µM [rising, full curve, poor fit]
4 | CCCC(=O)c1ccc(N2CCOCC2)c(F)c1 | 3.86% | 0.82 µM [rising, full curve, poor fit] | –
5 | C=CCN(CC=C)C(=O)C1CCN(S(=O)(=O)c2ccc(-n3cnnn3)cc2)CC1 | 5.13% | – | –
6 | CCOc1ccc2nc(NC(=O)C3CCCN(S(=O)(=O)c4cccc5nonc45)C3)sc2c1 (stereo not given) | -3.06% | 0.366 µM [rising, partial curve, poor fit] | –
7 | O=C(CN1C(=O)S/C(=C\c2ccccn2)C1=O)Nc1ccccc1 | 27.5% | 6.51 µM [rising, partial curve] | –
8 | CCOC(=O)C(=O)Nc1cc([N+](=O)[O-])ccc1C | 20.9% | 20.6 µM [rising, partial curve, poor fit] | –
9 | CCc1cc(C(c2ccc(OC)c(OC)c2)N2CCOCC2)c(NC(=O)c2ccccc2)s1 (stereo not given) | -28% | 29.1 µM [falling, single point] | –
10 | COCCCNC(=O)Nc1ccc2c(c1)N(C)C(=O)CS2 | 58.9% | 23.1 µM [rising, partial curve] | 18.4 µM [rising, partial curve]
11 | Cc1nnc(-c2cnn(C)c2N)n1CCCN1CCOCC1 | -2.87% | 0.82 µM [falling, full curve, poor fit] | –
12 | Clc1ccc(-c2ccc(CNCC3CCCO3)o2)cc1 (stereo not given) | 28.5% | 23.1 µM [rising, partial curve, poor fit] | –
13 | CSc1cccc(NC(=S)NCCCN2CCN(c3ccc(F)cc3)CC2)c1 | – | 0.13 µM [rising, full curve, poor fit] | –
14 | CCCCN(C)CC(O)Cn1cc(/C=C/C(=O)c2cccs2)c2ccccc21 (stereo not given) | -8.27% | 16.4 µM [falling, single point] | –
15 | COc1ccc(NCC(=O)n2c(C)c(C)c3ccccc32)cc1OC | 22% | 0.651 µM [rising, full curve] | –
16 | CSc1nnc(-c2ccccc2Cl)o1 | -75.6% | 0.13 µM [falling, full curve, poor fit] | 20.6 µM [falling, partial curve, poor fit]
17 | Cc1ccccc1C(=O)NC(C)C1CC2CCC1C2 (stereo not given) | 5.13% | – | –
18 | Cc1ccccc1Cn1ccc(NC(=O)c2cc3ncc(Br)cn3n2)n1 | -2.42% | – | 5.17 µM [falling, single point]
19 | CSc1ccc(/C=C(\C#N)C(=O)NC2CCCCC2)cc1 | 3.89% | 5.17 µM [falling, full curve, poor fit] | –
20 | CCN(Cc1nc(-c2ccccc2)no1)C(=O)COc1cccc(OC)c1 | -5.22% | 0.116 µM [falling, full curve, poor fit] | –
21 | C/C(=N\NS(=O)(=O)c1ccccc1)c1cc(Cl)cc(Cl)c1O | -21.4% | 3.26 µM [falling, partial curve] | –

Looked up above.
cell number change, CCc1cc(C(c2ccc(OC)c(OC)c2)N2CCOCC2)c(NC(=O)c2ccccc2)s1 (stereo not given) is entered as -28%
AC50 [1], C/C(=N\NS(=O)(=O)c1ccccc1)c1cc(Cl)cc(Cl)c1O is entered as 3.26 µM [falling, partial curve]
AC50 [1], CSc1nnc(-c2ccccc2Cl)o1 is entered as 0.13 µM [falling, full curve, poor fit]

Remaining list, next part.

Row | SMILES | cell number change | AC50 [1] | AC50 [2]
22 | O=S(=O)(Nc1ccccc1)c1ccc(NS(=O)(=O)c2cccs2)cc1 | -5.26% | 0.447 µM [falling, partial curve] | –
23 | COc1ccc(-c2nn(-c3ccccc3)cc2/C=C(\C#N)S(=O)(=O)c2ccccc2)cc1OC | -33.3% | 6.51 µM [rising, single point] | 14.6 µM [falling, single point]
24 | CCOC(=O)CSCc1c(C#N)c2ccccc2n1C | 7.56% | 6.51 µM [falling, single point] | 0.116 µM [falling, full curve, poor fit]
25 | CCOC(=O)CN1C(=O)C(O)=C(C(C)=O)C1c1ccc([N+](=O)[O-])cc1 (stereo not given) | 40.8% | 2.06 µM [rising, full curve, poor fit] | –
26 | COc1ccccc1NC(=O)CSc1nnnn1-c1ccccc1OC | -20.5% | 0.731 µM [falling, single point] | –
27 | Cc1ccc(S(=O)(=O)NC2=NCN(CC(=O)O)CN2)cc1 | 19.6% | – | –
28 | Cc1cc(NC(=O)CCl)n(-c2nc3ccccc3s2)n1 | 13.9% | 6.51 µM [rising, single point] | –
29 | O=C(c1ccncc1)c1ccc(N2CCN(C3CC(=O)N(Cc4ccccc4)C3=O)CC2)cc1 (stereo not given) | – | – | 4.11 µM [rising, single point]
30 | Cc1ccc(-c2ccc(=O)n(CCC(=O)N3CCN(c4ccccc4)CC3)n2)cc1 | – | 0.82 µM [rising, single point] | –
31 | N#Cc1ccc(C(=O)NC2=NCCS2)cc1 | – | – | 0.82 µM [rising, single point]
32 | CCOC(=O)c1c(C)[nH]c(C(=O)COC(=O)c2[nH]c(C)c(C(C)=O)c2C)c1C | -4.14% | 0.092 µM [rising, full curve, poor fit] | –
33 | C/C(Cn1nnc([N+](=O)[O-])n1)=N\NC(=O)c1ccccc1Cl | – | 29.1 µM [rising, single point] | –
34 | Cc1[nH]c2ccccc2c1SCC(=O)N1CCN(c2ccccc2)CC1 | 15.6% | 0.00461 µM [rising, full curve, poor fit] | –
35 | COc1cc(-c2nnc(COC(=O)c3cc(C)no3)o2)cc(OC)c1OC | -24% | – | –
36 | COCCCNC(=O)c1nc2ccccc2c(=O)n1NC(=O)Nc1c(Cl)cccc1Cl | -8.5% | 1.46 µM [rising, partial curve, poor fit] | –
37 | C=C(Br)Cn1c(CC)nc2ccccc21 | -3.02% | 0.92 µM [rising, partial curve] | –
38 | CC1=C(C(=O)OC2CCCC2)C(c2ccc(C)o2)C2=C(CC(c3cccs3)CC2=O)N1 (stereo not given) | -9.45% | 6.51 µM [rising, single point] | –
39 | COC(=O)CC1NCCNC1=O (stereo not given) | – | 0.058 µM [falling, full curve] | –
40 | COc1ccc(CC(=O)NCC2(c3ccc(OC)c(OC)c3)CCOCC2)cc1 | -4.8% | – | –
41 | O=C(Nc1ccncc1)Nc1ccc(Cl)cc1 | – | – | 0.731 µM [falling, single point]
42 | CC(C)N(Cc1ccccc1)C(=O)CSc1nccn1C | -35.9% | – | –

Retrieved one by one from the list above:
Row | SMILES | cell number change | AC50 [1] | AC50 [2]
26 | COc1ccccc1NC(=O)CSc1nnnn1-c1ccccc1OC | -20.5% | 0.731 µM [falling, single point] | –
29 | O=C(c1ccncc1)c1ccc(N2CCN(C3CC(=O)N(Cc4ccccc4)C3=O)CC2)cc1 (stereo not given) | – | – | 4.11 µM [rising, single point]

Next part

Row | SMILES | cell number change | AC50 [1] | AC50 [2]
43 | Cc1ccc(C)c2nc(SCC(=O)N3CCCc4ccccc43)c(C#N)cc12 | – | 6.51 µM [rising, partial curve, poor fit] | –
44 | COc1cccc(NC(=S)N(CCCN2CCCC2)Cc2cccn2Cc2ccc(Cl)cc2)c1 | -46% | 29.1 µM [falling, single point] | 7.31 µM [falling, partial curve]
45 | O=C(CSc1nnnn1-c1ccccc1)NC(=O)Nc1ccc2c(c1)OCCO2 | -19.6% | – | 0.0291 µM [falling, full curve, poor fit]
46 | CC(C)c1ccc(C(=O)NN2CCOCC2)cc1 | 6.49% | – | –
47 | CN(C)c1ccc(NC(=O)CC(NCc2ccccn2)C(=O)O)cc1 (stereo not given) | 44.3% | 3.26 µM [falling, single point] | 29.1 µM [rising, single point]
48 | C/C=C(\C)CN1CCc2cc(OC)c(OC)cc2C1 | -36.3% | – | 7.31 µM [falling, partial curve, poor fit]
49 | Cc1ccc(NC(=O)NCc2nc3ccccc3n2C)cc1 | 16% | 0.103 µM [rising, partial curve, poor fit] | 0.00411 µM [rising, full curve, poor fit]
50 | Cc1cc(C)c(-c2cc(C(=O)Nc3c(C)n(C)n(-c4ccccc4)c3=O)[nH]n2)c(O)c1 | 25.5% | 29.1 µM [rising, single point] | –
51 | O=C(N/N=C\c1ccccc1)c1ccccc1-n1cccc1 | -14.1% | – | –
52 | O=C(Nc1nc(-c2ccccc2)cs1)c1ccc(Br)o1 | -29.1% | 10.3 µM [falling, partial curve, poor fit] | –
53 | O=C(NCCC1=CCCCC1)C1CCN(c2nc3ccccc3o2)CC1 | 9.28% | 2.06 µM [falling, full curve] | –
54 | CC(=O)n1cc(C(C[N+](=O)[O-])SCCN)c2ccccc21 (stereo not given) | -57.2% | 14.6 µM [falling, partial curve] | 29.1 µM [falling, single point]
55 | CCOC(=O)CNc1c(N2CCN(c3ccccn3)CC2)c(=O)c1=O | 10.1% | – | –
56 | Cc1cc(C)cc(-n2nnnc2SCC(=O)Nc2cccc(NC(=O)c3ccco3)c2)c1 | -20.1% | 14.6 µM [falling, single point] | –
57 | O=C(NCc1ccco1)c1ccccc1 | – | 0.58 µM [falling, full curve] | –
58 | O=C1CCN(Cc2ccc(O)cc2)CCN1CCO | 11.3% | 4.11 µM [rising, partial curve] | –
59 | CC(C)(C)c1ccc(-c2noc(CCC(=O)NCC3CCCO3)n2)cc1 (stereo not given) | -65.7% | 20.6 µM [falling, partial curve] | 23.1 µM [falling, partial curve]
60 | Cc1sc2ncn(CC(=O)N3CCCCC3)c(=O)c2c1C | -13.9% | 3.26 µM [falling, single point] | 3.66 µM [falling, single point]
61 | CCOC(=O)c1ccc(CN2C(=O)c3ccccc3S2(=O)=O)cc1 | 1.4% | – | 0.058 µM [rising, full curve, poor fit]
